Reference: article PMC12874371, “Screening of FDA-Approved Small Molecules to Discover Inhibitors of the Pseudomonas aeruginosa Quorum-Sensing Enzyme, PqsE” (Biochemistry, 2026)

Amino acid sequences for entries named in this document (tags omitted).
UniProt P20581, whole entry S285W: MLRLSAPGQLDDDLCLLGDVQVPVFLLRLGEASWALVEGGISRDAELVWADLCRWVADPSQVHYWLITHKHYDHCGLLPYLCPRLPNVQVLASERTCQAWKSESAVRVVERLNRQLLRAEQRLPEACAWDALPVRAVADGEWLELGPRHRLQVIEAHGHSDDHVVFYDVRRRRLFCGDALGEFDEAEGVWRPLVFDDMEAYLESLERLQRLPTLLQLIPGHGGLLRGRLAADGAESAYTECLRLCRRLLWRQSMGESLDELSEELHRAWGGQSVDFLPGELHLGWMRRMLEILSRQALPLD

Molecular target: T1, PqsE(S285W) (Pseudomonas aeruginosa, UniProt P20581, S285W)
T1 construct: 6xHis (N); made in house; host or cells: E. coli BL21 (DE3), pET28b-6xHis-pqsE(S285W) (strain IT55)
Type: biochemical
Conditions: side-by-side with PqsE(WT), Figure 2

O=c1n(CCCN2CCN(c3cccc(Cl)c3)CC2)nc2ccccn12 [Trazodone]
IC50 against PqsE(S285W), esterase assay: could not be determined
